Measurements from patent publication US20240109941A1 (University of California, published 2024).
“Also recorded” adds a separate entry of the source. Read-outs that look alike come from different tables or passages of the source.

B1: CghSAMPa (full length stable antimicrobial peptide) (peptide)
chain: MCCNRGKNVSIENLHQGFTHIFESTFESTEGVAEYVSHPSHVEYANLFLANLEKVLVIDYKPTTVRV
notes: In the native gel it ran as polymers, 'likely hexamers based on the molecular weight'; also called MaSSAMP; Syd72SSAMP1

Conditions: native PAGE

Molecule	polymer (hexamer) formation in native gel (listed as MaSSAMP-helix2)	polymer (hexamer) formation in native gel (listed as MaSSAMP)
SHVEYANLFLANLEKVLVIDYK [CghSAMPa helix 2, polypeptide containing CghSAMPa helix 2]	polymers (again, likely hexamers based on the molecular weight) were detected; also recorded: formed hexamers in the native gel	
B1		polymers (likely hexamers based on the molecular weight) were detected in a native gel; also recorded: formed hexamers in the native gel
